Patent US20150259688
Construct, isoform or probe ends are uncertain for at least one entry. Tags and fusion partners may be left off the protein sequences shown.

Target: T1, LL37 (cathelicidin peptide) (Homo sapiens) (UniProt P49913)
T1 sequence (looked up): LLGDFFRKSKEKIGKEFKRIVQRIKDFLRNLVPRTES
Test: activity in cells
Conditions: 5 uM aptamer with 10 uM LL37 + human gDNA in pDC culture; IFN-alpha production greatly decreased (ELISA); purified recombinant protein; single-stranded DNA

Question: With “ACTGGGTCTCACCATCGAAAATCGAAATGACTAAAAGGCC [SEQ7 (Apta#222)]” as the sequence, how does the “functional effect of the aptamer” value read?
Answer: The value was “active”.
